Laboratory results: PubChem BioAssay AID587 (National Center for Advancing Translational Sciences (NCATS), 2007)
In all, about 59,000 compounds went through this assay and about 35 (0.06%) were called active. Inconclusive results, whose numbers are uncertain, are shown with a selection of clear calls. No stated cut-off is given here; in the data, active means max dye-equivalent concentration above about 10 nM; inconclusive means between about 1.1 nM and that limit; inactive means weaker than that.

Assay: qHTS Assay for Spectroscopic Profiling in Texas Red Spectral Region
Conditions: Compound fluorescence, Texas Red channel, 547/618 nm; hits give high values
Source text: NIH Molecular Libraries Screening Centers Network [MLSCN] NIH Chemical Genomics Center [NCGC] […] Occasionally, the artifactual effect may originate from the compound#s own spectral or other biophysical properties which generally tend to track its assay concentration. Pre-screening/profiling the library with respect to the compounds# spectral properties should help one exclude false positives early on. While the most informative fluorescent profiling data set is obtained by performing a full excitation and emission scan of each well by using a monochromator-based plate reader, such an approach is practical only on a very limited scale as scanning each well requires long time. An alternative approach, applied here, is to perform plate reader scans using selected excitation and emission wavelength pairs to generate a multidimensional relational database that correlates compound concentration and the respective relative fluorescence intensity at a given wavelength set. A standard curve of Texas Red (TR) present on each plate as six-point concentration series, was used to compute a normalized fluorescence response, termed dye-equivalent concentration, for each compound at each concentration.
NCGC Assay Protocol Summary: Buffer: 100 mM Tris buffer, pH 8.0 Dye standard plate: The wells in columns 1 through 4 of a Kalypsys polypropylene 1536-well compound plate were filled with standard solutions of fluorophore corresponding to the spectral region of interest. Solutions of TR were placed in the following wells: U1, V1: 3 mM, U2, V2: 300 uM, U3, V3: 30 uM, U4, V4: zero (DMSO), W1, X1: 3 uM, W2, X2: 900 nM, W3, X3: 300 nM, W4, X4: zero (DMSO). Assay Steps: Six uL of buffer were dispensed to 1536-well Greiner black plates. Compounds and dye standards (23 nL) were transferred via Kalypsys PinTool. The plates were incubated for 15 min at room temperature, and then read on ViewLux (Perkin-Elmer) High-throughput CCD imager using 547 nm and 618 nm excitation and emission filter set. Keywords: NIH Roadmap, MLSCN, MLI, MLSMR, qHTS, NCGC, Texas Red, Fluorescent Profiling.

Row | SMILES | max dye-equivalent concentration
1 | CN(C)S(=O)(=O)c1ccc(C(=O)Nc2cccc(C(=O)O)c2)cc1 | inconclusive: 1.3 nM
2 | Nc1cc(OC(=O)c2cccs2)nn1S(=O)(=O)c1ccccc1 | inconclusive: 1.7 nM
3 | O=C(Cn1nnc(-c2ccccc2)n1)NCc1cccs1 | inconclusive: 1.6 nM
4 | N#Cc1cccc(-c2nc3cnc(N4CCNCC4)nc3n(C3CC3)c2=O)c1 | inactive
5 | O=C(COC(=O)C1CC2C=CC1C2)NCc1ccco1 (centres undefined) | inconclusive: 1.8 nM
6 | O=C(CC1CCS(=O)(=O)C1)NC1CCCCC1 (centres undefined) | inconclusive: 1.5 nM
7 | c1ccc2c(c1)NC1(CCCCC1)n1c-2nc2ccccc21 | inconclusive: 1.4 nM
8 | COc1ccc(-c2ccc(-c3nnc(Cc4ccc(OC)c(OC)c4)o3)cc2)cc1 | inconclusive: 1.9 nM
9 | c1cn(C23CC4CC(CC(C4)C2)C3)cn1 | inconclusive: 1.1 nM
10 | CNC/C(Cl)=N/S(=O)(=O)c1ccc(C)cc1 | inactive
11 | COc1ccccc1C(=O)n1nc(-c2ccccc2)nc1N | inconclusive: 1.4 nM
12 | O=C(Cc1cccs1)Nc1ccc(-c2nnn(CC(=O)N3CCOCC3)n2)cc1 | inconclusive: 1.7 nM
13 | O[C@H](COc1ccccc1)CN1CCCCC1 | inconclusive: 1.5 nM
14 | CCOC(=O)CNC(=O)COc1ccc(Cl)cc1Br | inconclusive: 1.6 nM
15 | COc1ccc(OC)c(C(=O)COC(=O)c2cc(C)oc2C)c1 | inconclusive: 2.5 nM
16 | Cc1ccc(C(=O)N(c2ccccn2)C(C)c2ccco2)cc1 (centres undefined) | inconclusive: 2.5 nM
17 | COc1ccc(-n2c(=O)[nH]cc(C(=O)N3CCc4ccccc43)c2=O)cc1 | inconclusive: 1.1 nM
18 | Cc1cccc(C)c1NC(=O)Cn1c(=O)n(CCC(=O)NCc2ccco2)c(=O)c2sccc21 | inconclusive: 1.2 nM
19 | COCC(=O)Nc1cccc(Br)c1 | inconclusive: 1.3 nM
20 | C/C(Cl)=C/CN1C(=O)C2C3C=CC(C3)C2C1=O (centres undefined) | inconclusive: 1.6 nM

Individual results from the list:
c1cn(C23CC4CC(CC(C4)C2)C3)cn1 | max dye-equivalent concentration: inconclusive: 1.1 nM
CN(C)S(=O)(=O)c1ccc(C(=O)Nc2cccc(C(=O)O)c2)cc1 | max dye-equivalent concentration: inconclusive: 1.3 nM

Next results follow:

Row | SMILES | max dye-equivalent concentration
21 | c1cnn(-c2cc(N3CCOCC3)ncn2)c1 | inconclusive: 1.5 nM
22 | Clc1cccc(Cl)c1Cn1cnc2c(N3CCCCCC3)ncnc21 | inconclusive: 1.1 nM
23 | CC(C)CN1C(=O)NC(NC(=O)c2ccco2)(C(F)(F)F)C1=O (centres undefined) | inactive
24 | CN1CCCN([C@@H](c2ccccc2)c2ccc(Cl)cc2)CC1 | inactive
25 | COc1ccc(C(O)P(=O)(O)CCc2ccccc2)cc1 (centres undefined) | inconclusive: 1.3 nM
26 | CC(=O)N[C@@H]1CONC1=O | inactive
27 | Cc1noc(C)c1S(=O)(=O)N(CC(=O)O)c1ccc2c(c1)OCO2 | inconclusive: 1.2 nM
28 | CC(C)COc1nc2ccccc2nc1C(C#N)C(=O)NC1CCCCC1 (centres undefined) | inactive
29 | CC(=O)Cc1nsc(NC(=O)c2csc3c2CCCC3)n1 | inconclusive: 1.1 nM
30 | CCn1c2ccccc2c2nnc(SCC(=O)Nc3ccc4c(c3)OCO4)nc21 | inconclusive: 1.3 nM
31 | CN(Cc1nnc(SCC(=O)NCCc2ccccc2)n1C)S(=O)(=O)c1ccccc1 | inconclusive: 1.8 nM
32 | COC(=O)CSc1nc2c(c(=O)[nH]c(=O)n2C)n1CCC(C)C | inconclusive: 2 nM
33 | CN1CCC(NC(=O)Cc2c(F)cccc2Cl)CC1 | inconclusive: 1.4 nM
34 | Cn1c(=O)c(=O)n(C)c2cc(S(=O)(=O)N3CCCCC3)ccc21 | inconclusive: 1.1 nM
35 | O=C(c1cccc(C(F)(F)F)c1)N1CCCC1 | inconclusive: 1.1 nM
36 | CCOC(=O)c1c(C2COc3ccccc3O2)csc1NC(=O)c1ccco1 (centres undefined) | inconclusive: 1.4 nM
37 | Cc1cc(SCC(=O)c2ccccc2)nc(C)n1 | inconclusive: 1.3 nM
38 | Cc1nc2cnc(N3CCN(C)CC3)nc2n(C[C@H]2CCCO2)c1=O | inactive
39 | COc1ccc(S(=O)(=O)N2CCCC2C(=O)Nc2ccc(C)cc2)cc1 (centres undefined) | inconclusive: 1.4 nM
40 | Cn1c(=O)n(CCN2CCOCC2)c(=O)c2c1nc1n2CCN1c1ccccc1 | inconclusive: 2.7 nM

Row | SMILES | max dye-equivalent concentration
41 | Cc1cccc(-n2c(O)c(C=Nc3c(C)n(C)n(-c4ccccc4)c3=O)c3ccccc3c2=O)n1 | inactive
42 | Cc1cc(C)c2cc(CN(Cc3nnnn3C3CCCCC3)CC3CCCO3)c(=O)[nH]c2c1 (centres undefined) | inconclusive: 1.3 nM
43 | Cc1c(N=Cc2ccc(Cl)o2)c(=O)n(-c2ccccc2)n1C | inactive
44 | CCOC(=O)Cc1csc(NC(=O)CSc2ncnc3c2cnn3-c2ccccc2Cl)n1 | inconclusive: 1.8 nM
45 | Cc1cc(NC(=O)c2cc(-c3ccccn3)nc3ccccc23)no1 | inconclusive: 1.2 nM
46 | COC(=O)CSc1nnc(CSc2nc(C)cc(C)n2)n1Cc1ccco1 | inconclusive: 2 nM
47 | Cc1ccc(S(=O)(=O)NCCC(=O)OCn2nnc3ccccc3c2=O)cc1 | inconclusive: 1.6 nM
48 | CCOC(=O)c1[nH]c(C)c(C(=O)N(C)Cc2ccccc2)c1C | inconclusive: 1.3 nM
49 | O=C(CSc1nnc(-c2ccccc2)o1)Nn1cnnc1 | inconclusive: 1.9 nM
50 | O=C1CCCc2c1nc(-c1ccco1)n2O | inconclusive: 1.1 nM
51 | COc1ccc(N2CCN(C(=O)CSc3nnc4ncccn34)CC2)cc1 | inactive
52 | CS(=O)(=O)N1CCC2(CCN(Cc3ccncc3)CC2)CC1 | inactive
53 | CCc1nnc(NC(=O)C2CCCN(c3nc4ccccc4s3)C2)s1 (centres undefined) | inactive
54 | O=C(Cc1ccc(F)cc1)N(c1ccc(F)cc1)C1C=CS(=O)(=O)C1 (centres undefined) | inconclusive: 1.9 nM
55 | CC1CCCCC1NC(=O)Cn1c(CN2CCCCC2)nc2ccccc2c1=O (centres undefined) | inconclusive: 3.2 nM
56 | O=C(Nc1cc(C(F)(F)F)ccc1N1CCCC1)c1ccc2c(c1)OCO2 | inconclusive: 1.6 nM
57 | O=[N+]([O-])c1cccc2c(Br)[nH]nc12 | inconclusive: 1.4 nM
58 | CC(=O)N1CCN(C2=Nc3cccc4cccc2c34)CC1 | inactive
59 | COc1ccc(-n2c(=S)[nH]c3cc(C(=O)NCCCN4CCCC4=O)ccc3c2=O)cc1 | inconclusive: 1.2 nM
